Some compounds share one wording; it may come from a single statement.
experiment: Damage to surfaces: solvent droplet on nitrocellulose lacquer finish; settings: droplet of solvent on clear nitrocellulose lacquer finish for 15 minutes, then wiped dry

Compound | Observation (damage to lacquer finish)
CC(C)=O [Acetone] | Lacquer finish completely dissolved
CCCOCC(C)O (stereo not shown) [DOWANOL ® PnP] | Lacquer finish partially dissolved
CCCCOCCOCCO [Diethylene Glycol Butyl Ether] | No impact on lacquer finish
CCO [Ethanol] | No impact on lacquer finish
CCCCOCCO [Ethylene Glycol Butyl Ether] | Lacquer finish partially dissolved
CCCCCCCCCCCCCC(=O)OC(C)C [Isopropyl Myristate] | No impact on lacquer finish
CN1CCCC1=O [N-Methyl Pyrrolidone] | Lacquer finish completely dissolved
CC(O)CO (stereo not shown) [Propylene Glycol] | No impact on lacquer finish
O [Water] | No impact on lacquer finish
CCCCCCC [n-Heptane] | No impact on lacquer finish
